Measured data: PubChem BioAssay AID1508597 (Cure First, 2020)
The whole screen tested about 2,100 reagents; this is an unselected part. 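Calls flag viability under 80% in either arm, not effects specific to rucaparib; the reference for percent is not stated.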 Some reagents were tested in more than one well and are listed for each. No sequences are given here. The record does not give: the 100% reference.

Aim: 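Survival screen with siRNA in ovarian cancer cells derived from patients, with or without rucaparib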 (primary screen)
Cells: human ovarian carcinoma lines grown from tumours: OCI-P5x (papillary serous) and OCI-C5x (clear cell)
Knock-down reagent: siRNA pool against human genes, 1.25 pmol siRNA per well
Duration: 72 h or 96 h, depending on the cell culture
Treatment: rucaparib 20 µM (about IC30) or vehicle, present until read-out
Measured: 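Luminescent ATP-based viability assay read 72 or 96 h after transfection, depending on culture, given as normalised percent viability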
Scale: viability, normalised: higher = more viable cells remaining
Rule for the call: 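Active when normalised viability falls below 80 percent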
Meaning of the calls: active = viability under 80%; inactive = viability 80% or more

gene | rucaparib or vehicle | cell line | technical replicate | viability, normalised (%) | Call
PHF21A (PHD finger protein 21A) | Rucaparib | OCI-C5x (clear cell) | 1 | 48.4 | active
PHF21A (PHD finger protein 21A) | Rucaparib | OCI-C5x (clear cell) | 2 | 51.4 | active
PHF21A (PHD finger protein 21A) | Rucaparib | OCI-C5x (clear cell) | 3 | 33 | active
PHF21A (PHD finger protein 21A) | Rucaparib | OCI-P5x (serous) | 1 | 39.3 | active
PHF21A (PHD finger protein 21A) | Rucaparib | OCI-P5x (serous) | 2 | 34.4 | active
PHF21A (PHD finger protein 21A) | Rucaparib | OCI-P5x (serous) | 3 | 38.5 | active
PHF21A (PHD finger protein 21A) | Vehicle | OCI-C5x (clear cell) | 1 | 41.8 | active
PHF21A (PHD finger protein 21A) | Vehicle | OCI-C5x (clear cell) | 2 | 33.7 | active
PHF21A (PHD finger protein 21A) | Vehicle | OCI-C5x (clear cell) | 3 | 43.9 | active
PHF21A (PHD finger protein 21A) | Vehicle | OCI-P5x (serous) | 1 | 48.1 | active
PHF21A (PHD finger protein 21A) | Vehicle | OCI-P5x (serous) | 2 | 57.2 | active
PHF21A (PHD finger protein 21A) | Vehicle | OCI-P5x (serous) | 3 | 70.6 | active
KDM8 (lysine demethylase 8 (putative)) | Rucaparib | OCI-C5x (clear cell) | 1 | 47.8 | active
KDM8 (lysine demethylase 8 (putative)) | Rucaparib | OCI-C5x (clear cell) | 2 | 31 | active
KDM8 (lysine demethylase 8 (putative)) | Rucaparib | OCI-C5x (clear cell) | 3 | 42.8 | active
KDM8 (lysine demethylase 8 (putative)) | Rucaparib | OCI-P5x (serous) | 1 | 67.7 | active
KDM8 (lysine demethylase 8 (putative)) | Rucaparib | OCI-P5x (serous) | 2 | 79.4 | active
KDM8 (lysine demethylase 8 (putative)) | Rucaparib | OCI-P5x (serous) | 3 | 83.6 | inactive
KDM8 (lysine demethylase 8 (putative)) | Vehicle | OCI-C5x (clear cell) | 1 | 50.4 | active
KDM8 (lysine demethylase 8 (putative)) | Vehicle | OCI-C5x (clear cell) | 2 | 55 | active
KDM8 (lysine demethylase 8 (putative)) | Vehicle | OCI-C5x (clear cell) | 3 | 63.9 | active
KDM8 (lysine demethylase 8 (putative)) | Vehicle | OCI-P5x (serous) | 1 | 83.8 | inactive
KDM8 (lysine demethylase 8 (putative)) | Vehicle | OCI-P5x (serous) | 2 | 93.3 | inactive
KDM8 (lysine demethylase 8 (putative)) | Vehicle | OCI-P5x (serous) | 3 | 93.7 | inactive
FCSK (fucose kinase) | Rucaparib | OCI-C5x (clear cell) | 1 | 57.5 | active
FCSK (fucose kinase) | Rucaparib | OCI-C5x (clear cell) | 2 | 37.8 | active
FCSK (fucose kinase) | Rucaparib | OCI-C5x (clear cell) | 3 | 56.6 | active
FCSK (fucose kinase) | Rucaparib | OCI-P5x (serous) | 1 | 68.7 | active
FCSK (fucose kinase) | Rucaparib | OCI-P5x (serous) | 2 | 47.9 | active
FCSK (fucose kinase) | Rucaparib | OCI-P5x (serous) | 3 | 49.4 | active
FCSK (fucose kinase) | Vehicle | OCI-C5x (clear cell) | 1 | 40.2 | active
FCSK (fucose kinase) | Vehicle | OCI-C5x (clear cell) | 2 | 50.9 | active
FCSK (fucose kinase) | Vehicle | OCI-C5x (clear cell) | 3 | 34.1 | active
FCSK (fucose kinase) | Vehicle | OCI-P5x (serous) | 1 | 78 | active
FCSK (fucose kinase) | Vehicle | OCI-P5x (serous) | 2 | 66.1 | active
FCSK (fucose kinase) | Vehicle | OCI-P5x (serous) | 3 | 58.3 | active
NUAK2 (NUAK family kinase 2) | Rucaparib | OCI-C5x (clear cell) | 1 | 41.2 | active
NUAK2 (NUAK family kinase 2) | Rucaparib | OCI-C5x (clear cell) | 2 | 44.9 | active
NUAK2 (NUAK family kinase 2) | Rucaparib | OCI-C5x (clear cell) | 3 | 50.4 | active
NUAK2 (NUAK family kinase 2) | Rucaparib | OCI-P5x (serous) | 1 | 70.5 | active
NUAK2 (NUAK family kinase 2) | Rucaparib | OCI-P5x (serous) | 2 | 75.7 | active
NUAK2 (NUAK family kinase 2) | Rucaparib | OCI-P5x (serous) | 3 | 60.5 | active
NUAK2 (NUAK family kinase 2) | Vehicle | OCI-C5x (clear cell) | 1 | 54.2 | active
NUAK2 (NUAK family kinase 2) | Vehicle | OCI-C5x (clear cell) | 2 | 56.8 | active
NUAK2 (NUAK family kinase 2) | Vehicle | OCI-C5x (clear cell) | 3 | 52 | active
NUAK2 (NUAK family kinase 2) | Vehicle | OCI-P5x (serous) | 1 | 56.1 | active
NUAK2 (NUAK family kinase 2) | Vehicle | OCI-P5x (serous) | 2 | 55.8 | active
NUAK2 (NUAK family kinase 2) | Vehicle | OCI-P5x (serous) | 3 | 62.7 | active
PARP4 (poly(ADP-ribose) polymerase family member 4) | Rucaparib | OCI-C5x (clear cell) | 1 | 67.5 | active
PARP4 (poly(ADP-ribose) polymerase family member 4) | Rucaparib | OCI-C5x (clear cell) | 1 | 41.6 | active
PARP4 (poly(ADP-ribose) polymerase family member 4) | Rucaparib | OCI-C5x (clear cell) | 2 | 47.5 | active
PARP4 (poly(ADP-ribose) polymerase family member 4) | Rucaparib | OCI-C5x (clear cell) | 2 | 37.4 | active
PARP4 (poly(ADP-ribose) polymerase family member 4) | Rucaparib | OCI-C5x (clear cell) | 3 | 69.1 | active
PARP4 (poly(ADP-ribose) polymerase family member 4) | Rucaparib | OCI-C5x (clear cell) | 3 | 40.2 | active
PARP4 (poly(ADP-ribose) polymerase family member 4) | Rucaparib | OCI-P5x (serous) | 1 | 39.7 | active
PARP4 (poly(ADP-ribose) polymerase family member 4) | Rucaparib | OCI-P5x (serous) | 1 | 90.1 | inactive
PARP4 (poly(ADP-ribose) polymerase family member 4) | Rucaparib | OCI-P5x (serous) | 2 | 49.3 | active
PARP4 (poly(ADP-ribose) polymerase family member 4) | Rucaparib | OCI-P5x (serous) | 2 | 96.4 | inactive
PARP4 (poly(ADP-ribose) polymerase family member 4) | Rucaparib | OCI-P5x (serous) | 3 | 53.1 | active
PARP4 (poly(ADP-ribose) polymerase family member 4) | Rucaparib | OCI-P5x (serous) | 3 | 86 | inactive
PARP4 (poly(ADP-ribose) polymerase family member 4) | Vehicle | OCI-C5x (clear cell) | 1 | 41.1 | active
PARP4 (poly(ADP-ribose) polymerase family member 4) | Vehicle | OCI-C5x (clear cell) | 1 | 66.7 | active
PARP4 (poly(ADP-ribose) polymerase family member 4) | Vehicle | OCI-C5x (clear cell) | 2 | 40.4 | active
PARP4 (poly(ADP-ribose) polymerase family member 4) | Vehicle | OCI-C5x (clear cell) | 2 | 56.2 | active
PARP4 (poly(ADP-ribose) polymerase family member 4) | Vehicle | OCI-C5x (clear cell) | 3 | 56.4 | active
PARP4 (poly(ADP-ribose) polymerase family member 4) | Vehicle | OCI-C5x (clear cell) | 3 | 35.4 | active
PARP4 (poly(ADP-ribose) polymerase family member 4) | Vehicle | OCI-P5x (serous) | 1 | 55.2 | active
PARP4 (poly(ADP-ribose) polymerase family member 4) | Vehicle | OCI-P5x (serous) | 1 | 89.5 | inactive
PARP4 (poly(ADP-ribose) polymerase family member 4) | Vehicle | OCI-P5x (serous) | 2 | 66.1 | active
PARP4 (poly(ADP-ribose) polymerase family member 4) | Vehicle | OCI-P5x (serous) | 2 | 84.4 | inactive
PARP4 (poly(ADP-ribose) polymerase family member 4) | Vehicle | OCI-P5x (serous) | 3 | 85 | inactive
PARP4 (poly(ADP-ribose) polymerase family member 4) | Vehicle | OCI-P5x (serous) | 3 | 66.7 | active

5 of these entries, reformatted.
| gene | rucaparib or vehicle | cell line | technical replicate | viability, normalised (%) | Call |
| --- | --- | --- | --- | --- | --- |
| KDM8 (lysine demethylase 8 (putative)) | Rucaparib | OCI-P5x (serous) | 3 | 83.6 | inactive |
| KDM8 (lysine demethylase 8 (putative)) | Vehicle | OCI-C5x (clear cell) | 1 | 50.4 | active |
| KDM8 (lysine demethylase 8 (putative)) | Vehicle | OCI-C5x (clear cell) | 2 | 55 | active |
| KDM8 (lysine demethylase 8 (putative)) | Vehicle | OCI-C5x (clear cell) | 3 | 63.9 | active |
| KDM8 (lysine demethylase 8 (putative)) | Vehicle | OCI-P5x (serous) | 1 | 83.8 | inactive |
